Test results from the supplement of paper PMC10849652.
This is one part of the list.

By UniProt entry, the sequences of proteins in these tests, tags left out. Where a name states a change or a piece, a line headed by the entry shows the natural chain unless it says otherwise.
UniProt Q8TDZ2: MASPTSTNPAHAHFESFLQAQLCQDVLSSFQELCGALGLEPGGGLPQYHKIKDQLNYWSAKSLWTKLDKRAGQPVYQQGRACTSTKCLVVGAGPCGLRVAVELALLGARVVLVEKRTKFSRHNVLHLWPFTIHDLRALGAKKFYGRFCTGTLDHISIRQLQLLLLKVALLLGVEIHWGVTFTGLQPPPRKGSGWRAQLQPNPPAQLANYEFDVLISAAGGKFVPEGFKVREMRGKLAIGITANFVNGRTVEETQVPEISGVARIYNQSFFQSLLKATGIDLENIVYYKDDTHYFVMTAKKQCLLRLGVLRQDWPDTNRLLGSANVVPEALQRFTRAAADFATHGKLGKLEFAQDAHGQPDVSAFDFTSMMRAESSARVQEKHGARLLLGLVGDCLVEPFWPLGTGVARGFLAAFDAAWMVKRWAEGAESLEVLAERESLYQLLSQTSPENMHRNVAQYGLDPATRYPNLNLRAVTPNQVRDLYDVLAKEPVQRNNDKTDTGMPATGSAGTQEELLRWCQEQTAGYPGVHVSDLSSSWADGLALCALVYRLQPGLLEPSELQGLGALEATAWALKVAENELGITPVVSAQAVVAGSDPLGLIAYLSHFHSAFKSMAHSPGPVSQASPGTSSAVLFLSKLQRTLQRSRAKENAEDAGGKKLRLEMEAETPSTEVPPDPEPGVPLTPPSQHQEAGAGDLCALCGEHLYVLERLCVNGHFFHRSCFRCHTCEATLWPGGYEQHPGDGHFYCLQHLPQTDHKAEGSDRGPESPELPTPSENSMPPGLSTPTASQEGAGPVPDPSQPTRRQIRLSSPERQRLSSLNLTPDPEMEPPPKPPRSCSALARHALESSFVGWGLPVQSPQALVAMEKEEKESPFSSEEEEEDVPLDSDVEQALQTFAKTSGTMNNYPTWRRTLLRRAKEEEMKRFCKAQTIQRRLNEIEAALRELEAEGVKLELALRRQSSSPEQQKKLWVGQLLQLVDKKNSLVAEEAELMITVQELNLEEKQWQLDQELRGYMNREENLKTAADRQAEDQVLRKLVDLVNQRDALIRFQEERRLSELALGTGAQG
UniProt Q6IN84: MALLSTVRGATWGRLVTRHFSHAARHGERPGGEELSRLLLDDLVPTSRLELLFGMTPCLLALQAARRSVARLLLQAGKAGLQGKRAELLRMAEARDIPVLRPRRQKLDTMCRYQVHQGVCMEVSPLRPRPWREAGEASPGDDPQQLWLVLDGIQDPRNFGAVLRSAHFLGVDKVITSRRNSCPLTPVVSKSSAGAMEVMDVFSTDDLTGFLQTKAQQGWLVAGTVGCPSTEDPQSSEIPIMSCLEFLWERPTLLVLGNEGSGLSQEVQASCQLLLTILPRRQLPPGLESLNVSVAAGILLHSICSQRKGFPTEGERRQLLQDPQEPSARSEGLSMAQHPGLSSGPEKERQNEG
UniProt O00566: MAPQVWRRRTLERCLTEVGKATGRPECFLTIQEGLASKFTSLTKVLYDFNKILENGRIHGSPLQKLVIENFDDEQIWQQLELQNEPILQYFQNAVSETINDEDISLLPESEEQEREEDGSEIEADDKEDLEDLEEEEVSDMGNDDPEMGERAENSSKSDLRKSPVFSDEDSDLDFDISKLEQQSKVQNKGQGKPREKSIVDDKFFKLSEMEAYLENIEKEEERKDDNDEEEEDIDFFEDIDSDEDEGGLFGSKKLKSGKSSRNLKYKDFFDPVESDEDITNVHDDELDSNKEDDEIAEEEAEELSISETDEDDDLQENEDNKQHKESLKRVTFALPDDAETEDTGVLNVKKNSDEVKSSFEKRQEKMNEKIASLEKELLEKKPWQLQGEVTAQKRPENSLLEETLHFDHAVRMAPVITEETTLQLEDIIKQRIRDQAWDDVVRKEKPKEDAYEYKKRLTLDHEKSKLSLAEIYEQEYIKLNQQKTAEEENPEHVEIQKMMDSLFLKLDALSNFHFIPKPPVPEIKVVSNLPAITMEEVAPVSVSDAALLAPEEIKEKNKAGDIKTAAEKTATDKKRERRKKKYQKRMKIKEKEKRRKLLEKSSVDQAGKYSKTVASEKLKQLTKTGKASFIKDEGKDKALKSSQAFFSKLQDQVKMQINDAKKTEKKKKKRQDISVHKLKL
UniProt O95396: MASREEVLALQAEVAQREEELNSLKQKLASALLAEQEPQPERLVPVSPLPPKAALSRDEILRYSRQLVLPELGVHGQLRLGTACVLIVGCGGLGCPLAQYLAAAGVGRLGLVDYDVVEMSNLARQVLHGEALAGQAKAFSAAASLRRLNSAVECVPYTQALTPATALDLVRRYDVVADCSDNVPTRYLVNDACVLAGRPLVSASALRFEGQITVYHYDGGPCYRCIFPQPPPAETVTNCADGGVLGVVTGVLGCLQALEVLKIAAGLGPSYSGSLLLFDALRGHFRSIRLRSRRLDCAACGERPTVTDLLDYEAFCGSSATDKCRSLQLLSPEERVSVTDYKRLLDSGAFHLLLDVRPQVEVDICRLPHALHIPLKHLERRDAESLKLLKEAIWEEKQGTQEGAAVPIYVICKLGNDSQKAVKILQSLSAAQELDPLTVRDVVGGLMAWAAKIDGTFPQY
UniProt Q9BUB5: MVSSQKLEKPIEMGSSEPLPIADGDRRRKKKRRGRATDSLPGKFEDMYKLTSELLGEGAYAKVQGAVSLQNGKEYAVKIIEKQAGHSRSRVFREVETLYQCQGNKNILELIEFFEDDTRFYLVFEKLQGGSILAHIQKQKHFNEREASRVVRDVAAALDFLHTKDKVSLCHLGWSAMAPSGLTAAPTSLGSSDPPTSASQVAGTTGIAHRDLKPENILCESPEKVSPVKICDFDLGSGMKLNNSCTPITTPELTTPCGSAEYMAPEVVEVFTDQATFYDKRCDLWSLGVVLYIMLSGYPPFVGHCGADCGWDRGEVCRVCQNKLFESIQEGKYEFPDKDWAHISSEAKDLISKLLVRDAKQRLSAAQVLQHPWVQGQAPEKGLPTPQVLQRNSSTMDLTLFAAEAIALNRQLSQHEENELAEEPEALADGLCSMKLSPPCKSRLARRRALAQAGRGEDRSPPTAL
UniProt Q9Y605: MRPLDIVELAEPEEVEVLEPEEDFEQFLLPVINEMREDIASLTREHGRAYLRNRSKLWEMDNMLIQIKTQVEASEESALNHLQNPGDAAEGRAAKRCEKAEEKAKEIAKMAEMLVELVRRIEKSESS
UniProt Q9BU76: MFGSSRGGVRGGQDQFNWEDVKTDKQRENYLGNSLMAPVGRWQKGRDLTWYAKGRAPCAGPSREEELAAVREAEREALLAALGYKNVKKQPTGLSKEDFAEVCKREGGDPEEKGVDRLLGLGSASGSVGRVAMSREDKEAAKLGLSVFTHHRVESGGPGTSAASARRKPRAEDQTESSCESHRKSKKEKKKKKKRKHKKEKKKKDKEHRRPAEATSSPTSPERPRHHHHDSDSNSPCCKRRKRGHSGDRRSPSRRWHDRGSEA
UniProt Q9BVC4, whole entry, looked up: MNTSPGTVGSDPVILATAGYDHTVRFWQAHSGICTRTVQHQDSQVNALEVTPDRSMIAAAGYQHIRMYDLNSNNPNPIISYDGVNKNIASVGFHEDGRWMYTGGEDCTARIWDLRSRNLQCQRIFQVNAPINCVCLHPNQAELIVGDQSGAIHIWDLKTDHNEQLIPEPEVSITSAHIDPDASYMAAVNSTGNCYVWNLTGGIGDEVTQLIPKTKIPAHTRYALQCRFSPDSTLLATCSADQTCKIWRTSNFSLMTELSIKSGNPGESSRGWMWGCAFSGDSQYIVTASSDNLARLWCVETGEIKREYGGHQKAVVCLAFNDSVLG
UniProt Q9HCE1: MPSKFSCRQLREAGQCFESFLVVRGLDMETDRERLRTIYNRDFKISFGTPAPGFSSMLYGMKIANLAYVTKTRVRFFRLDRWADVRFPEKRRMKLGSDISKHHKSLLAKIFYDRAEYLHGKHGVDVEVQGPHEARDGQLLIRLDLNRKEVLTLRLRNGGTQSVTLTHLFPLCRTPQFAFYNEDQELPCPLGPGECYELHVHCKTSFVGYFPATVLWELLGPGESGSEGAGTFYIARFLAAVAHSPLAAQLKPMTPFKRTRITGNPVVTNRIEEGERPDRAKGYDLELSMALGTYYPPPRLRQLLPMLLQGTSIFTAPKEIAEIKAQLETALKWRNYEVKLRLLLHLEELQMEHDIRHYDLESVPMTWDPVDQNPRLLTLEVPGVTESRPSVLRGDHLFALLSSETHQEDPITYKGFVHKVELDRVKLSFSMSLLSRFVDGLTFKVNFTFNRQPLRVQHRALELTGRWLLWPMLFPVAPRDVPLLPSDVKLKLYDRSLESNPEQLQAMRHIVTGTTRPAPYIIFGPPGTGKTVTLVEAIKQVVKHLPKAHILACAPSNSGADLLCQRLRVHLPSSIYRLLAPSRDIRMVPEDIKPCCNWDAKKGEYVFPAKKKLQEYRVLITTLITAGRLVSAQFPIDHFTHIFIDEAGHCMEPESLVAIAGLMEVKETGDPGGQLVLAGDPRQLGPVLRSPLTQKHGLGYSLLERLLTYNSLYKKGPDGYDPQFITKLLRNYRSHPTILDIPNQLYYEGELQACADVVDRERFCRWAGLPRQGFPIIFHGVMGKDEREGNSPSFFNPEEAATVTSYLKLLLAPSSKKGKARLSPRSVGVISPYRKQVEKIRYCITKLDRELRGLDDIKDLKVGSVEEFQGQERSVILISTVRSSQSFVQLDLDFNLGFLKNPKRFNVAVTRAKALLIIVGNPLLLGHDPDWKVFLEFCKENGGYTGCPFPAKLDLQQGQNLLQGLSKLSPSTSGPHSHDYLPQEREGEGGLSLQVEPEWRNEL

Columns and labels:
Assay in all cases: log2 fold change, soluble protein after heating vs DMSO (PISA); higher = thermal stabilisation; K562 cells, 10 uM, 30 min; active = over 0.2 and 3.5 SD of the protein, either way, in both replicates (recomputed)
[1] = compound: COC1=CC=C(C=C1)CN2C=CC3=C2C=C(C=C3)C(=O)NO
In short: (§1)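 Thermal stability values are relative to control samples and come from duplicates. They are expressed as log2 fold changes. For measurement, K562 cells (2×10^6 cells/mL) received 10 μM compound for 30 min, and aliquots were heated for 3 min over 48°C-58°C, pooled, and extracted at 4°C in PBS with 0.5% NP-40. Soluble protein, the supernatant after 21,000xg for 90 min, was quantified by TMTpro 16plex LC-MS/MS with equalised channel sums.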

[2] = compound: CON(C)C(=O)N1N=C(c2cc(F)ccc2F)S[C@@]1(CCCN)c1ccccc1 [filanesib]
In short: as §1

[3] = compound: CO[C@H]1C[C@@H]2CC[C@@H](C)[C@@](O)(O2)C(=O)C(=O)N2CCCC[C@H]2C(=O)O[C@H]([C@H](C)C[C@@H]2CC[C@H](n3cnnn3)[C@H](OC)C2)CC(=O)[C@H](C)/C=C(\C)[C@@H](O)[C@@H](OC)C(=O)[C@H](C)C[C@H](C)/C=C/C=C/C=C/1C [zotarolimus]
In short: as §1

[4] = compound: COc1cc(C(=O)O)ccc1NC(=O)[C@@H]1N[C@@H](CC(C)(C)C)[C@](C#N)(c2ccc(Cl)cc2F)[C@H]1c1cccc(Cl)c1F [idasanutlin]
In short: as §1

[5] = compound: COc1cc(Nc2ncc3c(n2)-c2ccc(Cl)cc2C(c2c(F)cccc2OC)=NC3)ccc1C(=O)O [alisertib]
In short: as §1

[6] = compound: COc1cc2nc(-c3cc(F)ccc3O)nc(N[C@@H]3CNC[C@H]3C(C)(C)O)c2cc1OC
In short: as §1

[7] = compound: COc1cc2ncnc(Nc3ccc(F)c(Cl)c3)c2cc1OCCCN1CCOCC1 [gefitinib]
In short: as §1

[8] = compound: COc1cccc2cc(-c3nc([C@H]4CC[C@H](C(=O)O)CC4)n4ncnc(N)c34)[nH]c12
In short: as §1

[9] = compound: CS(=O)(=O)CCNCc1ccc(-c2ccc3ncnc(Nc4ccc(OCc5cccc(F)c5)c(Cl)c4)c3c2)o1 [lapatinib]
In short: as §1

[10] = compound: CS(=O)(=O)c1ccc(-c2cnc(N)c(C(=O)Nc3ccccc3)n2)cc1
In short: as §1

[11] = compound: C[C@@H](Oc1cc(-c2cnn(C3CCNCC3)c2)cnc1N)c1c(Cl)ccc(F)c1Cl [crizotinib]
In short: as §1

[12] = compound: C[C@@H]1COCCN1C2=NC(=NC(=C2)C3(CC3)S(=O)(=O)C)C4=C5C=CNC5=CC=C4
In short: as §1

[13] = compound: C[C@H](C1=CC=C(C=C1)C(=O)NC2=C3C=CNC3=NC=C2)N
In short: as §1

[14] = compound: Cc1ccc(-n2nc(C(C)(C)C)cc2NC(=O)Nc2ccc(OCCN3CCOCC3)c3ccccc23)cc1 [doramapimod]
In short: as §1

[15] = compound: Cc1ccc(C(=O)N(CCCN)[C@@H](c2nc3cc(Cl)ccc3c(=O)n2Cc2ccccc2)C(C)C)cc1 [ispinesib]
In short: as §1

[16] = compound: C[C@H](Nc1ncnc2nc[nH]c12)c1cc2cccc(Cl)c2c(=O)n1-c1ccccc1 [duvelisib]
In short: as §1

[17] = compound: Cc1cc(Nc2cc(N3CCN(C)CC3)nc(Sc3ccc(NC(=O)C4CC4)cc3)n2)n[nH]1 [tozasertib]
In short: as §1

[18] = compound: Cc1cc(SCc2sc(-c3ccc(C(F)(F)F)cc3)nc2C)ccc1OCC(=O)O
In short: as §1

[19] = compound: CS(=O)(=O)N1CCN(Cc2cc3nc(-c4cccc5[nH]ncc45)nc(N4CCOCC4)c3s2)CC1 [pictilisib]
In short: as §1

[20] = compound: Cc1cc(Nc2cc(CN3CCOCC3)c3nc(C)c(Cc4ccc(Cl)cc4F)n3n2)n[nH]1 [gandotinib]
In short: as §1

Measured: log2 fold change

MICAL1 isoform 4 (UniProt Q8TDZ2)
inactive: [1] -0.077 | [2] -0.158 | [3] 0.06 | [4] -0.139 | [5] -0.229 | [6] -0.046 | [7] 0.061 | [8] -0.128 | [9] 0.128 | [10] 0.056 | [11] -0.207 | [12] 0.014 | [13] 0.075 | [14] 0.212 | [15] 0.417

MRM1 (UniProt Q6IN84)
inactive: [1] -0.082 | [2] 0.174 | [3] -0.056 | [4] 0.089 | [5] -0.141 | [6] -0.096 | [7] -0.095 | [8] -0.032 | [9] 0.081 | [10] -0.084 | [11] -0.105 | [12] -0.298 | [13] 0.215 | [16] 0.009 | [17] 0.023 | [18] 0.048 | [14] 0.003 | [15] -0.04

MPHOSPH10 (UniProt O00566)
active: [2] 0.561
inactive: [1] -0.139 | [3] 0.053 | [4] 0.271 | [5] -0.061 | [6] -0.166 | [7] 0.026 | [8] -0.031 | [9] 0.174 | [19] -0.105 | [10] -0.083 | [11] 0.026 | [12] -0.25 | [13] 0.353 | [20] 0.189 | [18] -0.046 | [14] 0.049 | [15] -0.023

MIEF1 (UniProt L0R8F8)
inactive: [1] 0.104 | [2] -0.072 | [3] 0.023 | [4] -0.063 | [5] -0.084 | [6] -0.148 | [7] -0.005 | [8] 0 | [9] 0.135 | [19] 0.033 | [10] -0.023 | [11] 0.068 | [12] -0.067 | [13] -0.065 | [20] -0.062 | [18] -0.025 | [14] -0.04 | [15] -0.03

MOCS3 (UniProt O95396)
inactive: [1] 0.023 | [2] -0.005 | [3] 0.032 | [4] -0.039 | [5] 0.151 | [6] 0.134 | [7] 0.041 | [8] -0.092 | [9] -0.006 | [19] 0.114 | [10] -0.031 | [11] 0.026 | [12] 0.173 | [13] -0.005 | [20] 0.013 | [17] -0.017 | [14] 0.016

MKNK1 (UniProt Q9BUB5)
inactive: [1] 0.021 | [2] -0.108 | [3] -0.022 | [4] -0.075 | [5] 0.008 | [6] -0.021 | [8] -0.073 | [9] 0.015 | [19] -0.058 | [10] 0.038 | [11] -0.082 | [12] -0.039 | [20] 0.038 | [18] 0.057 | [14] 0.054 | [15] -0.03
active: [7] 0.525 | [13] 0.31

MRFAP1 (UniProt Q9Y605)
inactive: [1] 0.015 | [2] -0.012 | [3] -0.018 | [4] 0.173 | [5] -0.435 | [6] -0.154 | [7] -0.036 | [8] 0.157 | [9] -0.093 | [19] -0.01 | [10] -0.066 | [11] -0.142 | [13] -0.048 | [20] -0.014 | [18] -0.023 | [14] 0.045 | [15] 0.016

MRPL34 (UniProt Q9BQ48)
inactive: [1] -0.074 | [2] 0.081 | [3] 0.072 | [4] 0.029 | [5] -0.089 | [6] -0.045 | [7] -0.105 | [8] -0.164 | [9] 0.028 | [19] -0.102 | [10] -0.004 | [11] -0.045 | [12] 0.077 | [13] 0.179 | [20] 0.164 | [18] 0.051 | [14] 0.152 | [15] -0.284

MMTAG2 (UniProt Q9BU76)
inactive: [1] -0.055 | [2] 0.47 | [3] 0.037 | [4] 0.208 | [5] -0.253 | [6] -0.001 | [7] -0.131 | [8] -0.161 | [9] 0.122 | [19] -0.017 | [10] -0.163 | [11] 0 | [13] 0.213 | [16] -0.037 | [20] 0.22 | [17] 0.145 | [18] -0.075 | [14] 0.092 | [15] -0.096

2 successive entries from above, quoted:
MRPL34 (UniProt Q9BQ48)
inactive: [1] -0.074 | [2] 0.081 | [3] 0.072 | [4] 0.029 | [5] -0.089 | [6] -0.045 | [7] -0.105 | [8] -0.164 | [9] 0.028 | [19] -0.102 | [10] -0.004 | [11] -0.045 | [12] 0.077 | [13] 0.179 | [20] 0.164 | [18] 0.051 | [14] 0.152 | [15] -0.284

MMTAG2 (UniProt Q9BU76)
inactive: [1] -0.055 | [2] 0.47 | [3] 0.037 | [4] 0.208 | [5] -0.253 | [6] -0.001 | [7] -0.131 | [8] -0.161 | [9] 0.122 | [19] -0.017 | [10] -0.163 | [11] 0 | [13] 0.213 | [16] -0.037 | [20] 0.22 | [17] 0.145 | [18] -0.075 | [14] 0.092 | [15] -0.096

Next part.

MLST8 (UniProt Q9BVC4)
inactive: [1] 0.1 | [2] -0.206 | [3] -0.12 | [4] -0.154 | [5] 0.019 | [6] 0.055 | [7] -0.041 | [8] -0.081 | [9] -0.039 | [10] -0.07 | [11] -0.12 | [12] 0.014 | [13] 0.089 | [18] 0.079 | [14] 0.042

MOV10 (UniProt Q9HCE1)
inactive: [1] -0.048 | [2] 0.155 | [3] -0.005 | [4] 0.071 | [5] -0.073 | [6] -0.021 | [7] 0.002 | [8] -0.1 | [9] 0.073 | [19] -0.048 | [10] -0.086 | [11] 0.032 | [12] -0.258 | [13] 0.254 | [20] 0.239 | [18] -0.023 | [14] 0.103 | [15] -0.093
